Laboratory results reported in PubChem BioAssay AID1487 (National Center for Advancing Translational Sciences (NCATS), 2009).
This is one part of the list. Further columns of the screen follow, without active or inactive calls. Most of these compounds were active or inconclusive in the main read-out, so they are no random draw. Words in brackets tell the shape of the fitted curve; partial curves, single points and poor fits give uncertain potencies.

Assay: qHTS Assay for Modulators of Lamin A Splicing
Conditions: HeLa LMNA splicing GFP/RFP minigene ratio, 48 h
Procedure, shortened: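 S3 HeLa cells stably expressing lamin A-EGFP splicing minigene plus DsRed2, 600 cells/well, 48 h compound exposure at 37C. Laser-scanning cytometry; analysed as GFP (500-530 nm)/RFP (575-640 nm) total intensity ratio; 0.5% DMSO vehicle.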

[1] = measured here: GFP splicing reporter channel
[2] = measured here: RFP viability control channel

O=C(CSc1ccc(Br)c2cccc(Cl)c12)Nc1ccc(S(=O)(=O)Nc2nccs2)cc1
AC50 [1]: 14.1 µM [falling, partial curve] | AC50 [2]: 35.5 µM [falling, partial curve, poor fit]

O=C(NNC(=O)C12CC3CC(CC(C3)C1)C2)c1cnccn1
AC50 [2]: 12.6 µM [rising, partial curve]

CCn1c(C)cc(C)c(C#N)c1=O
AC50 [2]: 0.316 µM [rising, partial curve, poor fit]

O=C(NNC(=O)c1ccc(O)cc1O)c1ccc(Cl)cc1
AC50 [2]: 17.8 µM [rising, partial curve, poor fit]

CCc1ccc(OCCCC(=O)Nc2nnc(C3CCCO3)s2)cc1 (stereo unspecified)
AC50 [1]: 0.00447 µM [falling, full curve, poor fit] | AC50 [2]: 39.8 µM [falling, partial curve, poor fit]

O=C(O)c1cc(=O)[nH]c(=O)[nH]1
AC50 [1]: 0.0891 µM [falling, full curve, poor fit] | AC50 [2]: 1.26 µM [falling, single point]

O=C(c1cccs1)c1coc2ccc(O)c(CN(CCO)CCO)c12
AC50 [2]: 7.08 µM [rising, full curve, poor fit]

CCCCCOC(=O)Cn1c(N2CCCCCC2)nc2c1c(=O)[nH]c(=O)n2C
AC50 [2]: 25.1 µM [rising, single point]

Cc1nn(-c2ccccc2)c(N2CCCC2)c1/C=N/NC(=O)c1ccccc1O
AC50 [1]: 7.94 µM [rising, partial curve, poor fit] | AC50 [2]: 11.2 µM [rising, partial curve]

O=c1c(-c2ccc(Cl)cc2)nc2cnc(Nc3ccccc3)nc2n1C1CC1
AC50 [1]: 11.2 µM [falling, partial curve] | AC50 [2]: 14.1 µM [falling, partial curve]

CC12CCC(C(=O)NNc3ccccc3)(C(=O)C1=O)C2(C)C (stereo unspecified)
AC50 [1]: 4.47 µM [rising, full curve] | AC50 [2]: 2.24 µM [rising, full curve, poor fit]

CCC(CC)C(=O)Nc1cc(C(=O)OC)cc(C(=O)OC)c1
AC50 [2]: 0.0282 µM [falling, full curve, poor fit]

O=C(Nc1ccnc(-c2ccncc2)n1)C1CC1
AC50 [1]: 5.62 µM [rising, single point]

Cc1ccc(S(=O)(=O)N(C)CC(=O)OCC(=O)NC(c2ccccc2)c2ccccc2)cc1
AC50 [2]: 12.6 µM [falling, partial curve, poor fit]

CCOC(=O)c1[nH]c2ccc(OC)cc2c1NC(=S)N1CCN(C(=O)OCC)CC1
AC50 [2]: 22.4 µM [falling, partial curve, poor fit]

CC(C)(C)C(=O)Nc1ccccc1C(=O)OCC(=O)c1ccc2c(c1)OCCO2
AC50 [2]: 20 µM [rising, single point]

CCc1ccc(NC(=O)N2CCN(Cc3cc(=O)n4nc(-c5ccccc5OC)sc4n3)CC2)cc1
AC50 [1]: 0.316 µM [rising, full curve] | AC50 [2]: 1.12 µM [rising, full curve]

O=[N+]([O-])c1cccc(/C=N/N2CCN(c3ccccn3)CC2)c1
AC50 [2]: 3.55 µM [falling, partial curve, poor fit]

CCOc1ccccc1N(C(=O)c1ccccc1Cl)C1=NC(C)(C)CS1
AC50 [1]: 10 µM [falling, partial curve, poor fit]

COc1ccc2nc(NC(=O)c3ccc(S(=O)(=O)N4CCC(C)CC4)cc3)sc2c1
AC50 [1]: 0.126 µM [rising, full curve, poor fit] | AC50 [2]: 0.0251 µM [rising, full curve, poor fit]

Cc1ccnc(SCC(=O)c2ccc(Br)cc2)c1C#N
AC50 [1]: 8.91 µM [rising, partial curve, poor fit] | AC50 [2]: 12.6 µM [rising, partial curve]

N#C/C(=C/c1ccc(-c2ccc(S(N)(=O)=O)cc2)o1)C(=O)Nc1ccccc1
AC50 [2]: 6.31 µM [rising, single point]

CCC1CSC(Nc2ccc(C(=O)/C=C/c3ccc(Oc4ccccc4)cc3)cc2)=N1 (stereo unspecified)
AC50 [1]: 31.6 µM [falling, single point] | AC50 [2]: 2.82 µM [falling, single point]

OC12CCCCC1C(c1ccc3c(c1)OCO3)N(Cc1cccc(F)c1)CC2 (stereo unspecified)
AC50 [1]: 3.55 µM [falling, single point] | AC50 [2]: 35.5 µM [falling, single point]

Cc1ccc(NC(=S)N=Nc2c(O)n(C)c3ccc(S(=O)(=O)N4CCOCC4)cc23)cc1C
AC50 [2]: 3.55 µM [rising, single point]

Cc1[nH]c(=O)[nH]c(=O)c1/C=C/C(=O)OCC(C)C
AC50 [1]: 6.31 µM [falling, single point]

Cn1c(SCC(=O)N2c3ccccc3Sc3ccccc32)nc2ccccc21
AC50 [2]: 14.1 µM [rising, partial curve, poor fit]

CC(C)(C)c1ccc(CSC2=Nc3ccccc3C3=NC(CC(=O)NCc4cccs4)C(=O)N23)cc1 (stereo unspecified)
AC50 [1]: 28.2 µM [falling, single point] | AC50 [2]: 35.5 µM [falling, single point]

c1ccc(COc2cccc(CN3CCN(c4ccccn4)CC3)c2)cc1
AC50 [1]: 12.6 µM [rising, partial curve] | AC50 [2]: 35.5 µM [rising, single point]

Cc1ccc(C(=O)NC(=C(Cl)Cl)S(=O)(=O)c2ccc(C)cc2)cc1
AC50 [1]: 25.1 µM [falling, partial curve] | AC50 [2]: 17.8 µM [falling, single point]

COc1ccc(OC)c(-c2csc(NC(=O)CSc3ccc(Br)cc3)n2)c1
AC50 [2]: 31.6 µM [rising, single point]

CC(Oc1ccccc1F)C(=O)/C=C/N(C)C (stereo unspecified)
AC50 [2]: 2.51 µM [falling, partial curve]

COc1cc(/C=N/N(C)c2ccccc2)cc(Cl)c1O
AC50 [1]: 22.4 µM [falling, single point] | AC50 [2]: 14.1 µM [falling, partial curve]

O=C(CN1C(=O)c2ccccc2C1=O)NCCOc1ccccc1
AC50 [2]: 5.62 µM [rising, single point]

CNC(=O)CN(c1ccc(C23CC4CC(CC(C4)C2)C3)cc1)S(C)(=O)=O
AC50 [1]: 0.00398 µM [falling, full curve, poor fit]

CCC(=O)c1ccc(OCC(=O)N(C)CC(=O)Nc2cccc(F)c2)cc1
AC50 [1]: 0.141 µM [falling, full curve] | AC50 [2]: 0.158 µM [falling, full curve]

Cc1ccc(/C=N/NC(=O)CSc2nc3ccccc3c(=O)n2-c2ccccc2C)s1
AC50 [1]: 7.08 µM [rising, full curve, poor fit]

CNC(=S)NNC(=O)c1ccc2c(c1)OCO2
AC50 [1]: 12.6 µM [rising, single point] | AC50 [2]: 31.6 µM [rising, single point]

CC(=O)c1c(C)nc2nonc2c1N
AC50 [2]: 0.562 µM [falling, full curve, poor fit]

COc1cc2c(cc1OC)C(c1cccc([N+](=O)[O-])c1)N(C(=O)c1ccccc1C(=O)O)CC2 (stereo unspecified)
AC50 [1]: 0.501 µM [rising, full curve, poor fit]

CCOC(=O)c1c(N2C(=O)Nc3ccccc3N2O)sc2c1CCCC2
AC50 [2]: 0.501 µM [rising, full curve]

Cc1onc(-c2ccccc2)c1C(=O)Nc1nnc(COc2ccc(Cl)cc2)s1
AC50 [1]: 12.6 µM [rising, partial curve] | AC50 [2]: 17.8 µM [rising, single point]

Oc1ccc(-c2nc(-c3ccc(F)cc3)c(-c3ccncc3)[nH]2)cc1
AC50 [1]: 1.58 µM [falling, full curve] | AC50 [2]: 5.01 µM [falling, partial curve]

Cc1cccc(C)c1Nc1nnc(SCC(=O)NC2CCS(=O)(=O)C2)s1 (stereo unspecified)
AC50 [1]: 0.708 µM [rising, single point] | AC50 [2]: 1.78 µM [rising, partial curve]

Cc1ccc(NC(=O)C2SC(=Nc3ccccc3)C(C(=O)Nc3ccc(Cl)cc3)=C2N)cc1 (stereo unspecified)
AC50 [1]: 31.6 µM [falling, partial curve] | AC50 [2]: 35.5 µM [rising, single point]

Cc1ccc(CSc2c(C)cnc3c2c(=O)n(C)c(=O)n3C)cc1
AC50 [2]: 6.31 µM [rising, single point]

COc1cccc2sc(NC(=O)c3ccc4c(c3)OCCO4)nc12
AC50 [2]: 35.5 µM [rising, single point]

Cc1cc(N/N=C/c2ccc(O)cc2O)nc(-c2ccccc2O)n1
AC50 [1]: 35.5 µM [falling, single point]

CC1CCc2c(nc3sc4c(c3c2N)CCCC4)C1 (stereo unspecified)
AC50 [2]: 8.91 µM [rising, partial curve]

COc1ccc2ccc3c(c2c1)N=CC1(O3)N(C)c2ccccc2C1(C)C (stereo unspecified)
AC50 [1]: 15.8 µM [rising, single point]

CS(=O)(=O)N1CCc2cc(-c3csc(NC(=O)Cc4cccs4)n3)ccc21
AC50 [2]: 3.16 µM [rising, single point]

Cn1c(SCC(=O)C(C)(C)C)nnc1-c1ccc(F)cc1
AC50 [1]: 0.00355 µM [rising, full curve, poor fit]

CN(C)c1nc(Nc2ccc(Cl)cc2)nc(OCC#N)n1
AC50 [2]: 22.4 µM [falling, single point]

COc1ccc(C(=O)CSc2nnc(COc3ccccc3)n2Cc2ccco2)cc1
AC50 [1]: 0.282 µM [rising, full curve]

COc1ccc2c(c1)C1C=CCC1C(c1cc3c(cc1Br)OCO3)N2 (stereo unspecified)
AC50 [1]: 3.98 µM [rising, partial curve]
